The source of these data is patent publication US20240261429A1, “CPMV BINDING PEPTIDE” (The Regents of the University of California, priority 2021, published 2024).

These are yes or no findings as the source states them, for the method shown.

The test has as its target potato virus X (PVX) (Potato virus X). Nature of the test: cross-reactivity phage ELISA.
For GWRVSEL [monoclonal phage MPSEL (M13 phage displaying GWRVSEL)], the binding entry was “no binding (tested: 10^9 pfu of phage, 5 µg of virus coated)”.
GFHYSLH [monoclonal phage MPSLH (M13 phage displaying GFHYSLH)]: the binding result was “no binding (tested: 10^9 pfu of phage, 5 µg of virus coated)”.
The same measure for GWRVSEF [monoclonal phage MPSEF (M13 phage displaying GWRVSEF)]: “no binding (tested: 10^9 pfu of phage, 5 µg of virus coated)”.
